Reference: the supplement of paper PMC10849652
The list shows a part of the results.

Sequences of proteins named here, by UniProt entry; tags and fusion partners are left off. A change or cut given only in a name is not applied to a line headed by its entry.
UniProt Q15554: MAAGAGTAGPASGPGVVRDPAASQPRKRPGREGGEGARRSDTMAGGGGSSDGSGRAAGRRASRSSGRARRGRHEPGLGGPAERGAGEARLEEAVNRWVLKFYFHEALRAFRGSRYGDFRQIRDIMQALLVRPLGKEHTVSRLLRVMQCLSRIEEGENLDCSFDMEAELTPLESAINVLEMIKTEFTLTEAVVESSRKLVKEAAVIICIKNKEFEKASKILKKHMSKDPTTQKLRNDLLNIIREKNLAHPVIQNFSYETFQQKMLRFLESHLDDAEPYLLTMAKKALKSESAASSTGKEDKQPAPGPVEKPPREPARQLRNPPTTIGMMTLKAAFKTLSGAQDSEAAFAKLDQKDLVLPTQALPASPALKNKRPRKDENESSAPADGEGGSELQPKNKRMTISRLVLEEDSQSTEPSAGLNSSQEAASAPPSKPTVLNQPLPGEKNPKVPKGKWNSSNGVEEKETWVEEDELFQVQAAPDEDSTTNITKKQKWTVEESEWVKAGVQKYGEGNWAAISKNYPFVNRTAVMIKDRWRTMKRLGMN
UniProt Q9Y5J6: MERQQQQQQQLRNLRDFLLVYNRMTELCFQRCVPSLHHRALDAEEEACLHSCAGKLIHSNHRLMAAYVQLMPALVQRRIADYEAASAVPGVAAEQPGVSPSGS
UniProt Q8NFU7: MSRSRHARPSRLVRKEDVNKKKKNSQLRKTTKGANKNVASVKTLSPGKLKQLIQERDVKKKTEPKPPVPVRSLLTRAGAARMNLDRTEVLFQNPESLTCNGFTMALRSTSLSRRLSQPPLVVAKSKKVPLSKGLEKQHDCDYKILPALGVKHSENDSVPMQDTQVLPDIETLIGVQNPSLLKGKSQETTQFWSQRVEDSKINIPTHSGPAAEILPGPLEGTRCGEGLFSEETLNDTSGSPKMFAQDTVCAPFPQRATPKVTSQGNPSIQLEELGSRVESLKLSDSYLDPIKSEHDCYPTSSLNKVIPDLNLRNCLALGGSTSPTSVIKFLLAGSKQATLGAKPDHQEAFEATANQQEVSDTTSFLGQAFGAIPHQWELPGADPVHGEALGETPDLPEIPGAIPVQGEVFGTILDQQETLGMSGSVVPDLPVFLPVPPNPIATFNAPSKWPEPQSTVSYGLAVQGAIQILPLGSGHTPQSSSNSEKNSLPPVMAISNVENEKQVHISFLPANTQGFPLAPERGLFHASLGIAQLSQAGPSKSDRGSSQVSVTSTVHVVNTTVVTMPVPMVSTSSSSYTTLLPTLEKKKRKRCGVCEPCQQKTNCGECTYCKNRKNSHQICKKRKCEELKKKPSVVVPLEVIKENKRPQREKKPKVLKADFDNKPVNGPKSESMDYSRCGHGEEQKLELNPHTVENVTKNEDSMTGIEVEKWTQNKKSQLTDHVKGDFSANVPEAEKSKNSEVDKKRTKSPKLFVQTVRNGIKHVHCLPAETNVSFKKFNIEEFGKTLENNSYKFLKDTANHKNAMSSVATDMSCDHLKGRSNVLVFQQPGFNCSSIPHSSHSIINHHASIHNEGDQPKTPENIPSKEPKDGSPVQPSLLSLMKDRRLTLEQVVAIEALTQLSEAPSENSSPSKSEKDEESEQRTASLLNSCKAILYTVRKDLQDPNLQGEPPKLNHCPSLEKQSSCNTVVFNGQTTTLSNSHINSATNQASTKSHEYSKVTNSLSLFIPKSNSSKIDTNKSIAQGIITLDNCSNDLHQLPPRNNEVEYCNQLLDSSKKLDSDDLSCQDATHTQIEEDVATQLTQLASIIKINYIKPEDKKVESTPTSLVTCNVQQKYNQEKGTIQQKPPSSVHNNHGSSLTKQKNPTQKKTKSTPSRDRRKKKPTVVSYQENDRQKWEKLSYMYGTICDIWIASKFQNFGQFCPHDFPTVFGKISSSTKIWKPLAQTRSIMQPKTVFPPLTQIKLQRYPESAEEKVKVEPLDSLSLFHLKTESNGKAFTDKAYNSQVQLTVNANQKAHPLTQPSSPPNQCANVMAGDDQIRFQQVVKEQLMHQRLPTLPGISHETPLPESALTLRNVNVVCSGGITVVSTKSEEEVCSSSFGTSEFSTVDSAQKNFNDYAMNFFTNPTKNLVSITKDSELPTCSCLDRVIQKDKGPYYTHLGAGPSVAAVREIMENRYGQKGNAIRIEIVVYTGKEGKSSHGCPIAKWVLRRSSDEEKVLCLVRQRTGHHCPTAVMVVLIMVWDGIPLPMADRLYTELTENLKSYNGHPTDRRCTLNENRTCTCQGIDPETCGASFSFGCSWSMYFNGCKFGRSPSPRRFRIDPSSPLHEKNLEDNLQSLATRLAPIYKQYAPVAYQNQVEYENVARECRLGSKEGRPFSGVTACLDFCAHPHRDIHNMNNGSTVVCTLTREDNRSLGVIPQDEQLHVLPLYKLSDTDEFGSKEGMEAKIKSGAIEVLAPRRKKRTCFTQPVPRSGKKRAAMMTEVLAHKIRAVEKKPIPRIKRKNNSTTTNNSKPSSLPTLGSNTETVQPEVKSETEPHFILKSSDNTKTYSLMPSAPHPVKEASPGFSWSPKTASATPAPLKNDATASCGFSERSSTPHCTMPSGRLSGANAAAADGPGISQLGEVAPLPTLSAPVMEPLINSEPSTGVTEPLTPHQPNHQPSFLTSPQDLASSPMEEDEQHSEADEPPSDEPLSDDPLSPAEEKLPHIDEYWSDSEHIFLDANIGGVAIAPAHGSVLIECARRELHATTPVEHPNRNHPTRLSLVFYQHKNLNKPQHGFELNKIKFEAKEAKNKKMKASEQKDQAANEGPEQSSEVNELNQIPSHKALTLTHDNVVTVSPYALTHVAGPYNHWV
UniProt O43493: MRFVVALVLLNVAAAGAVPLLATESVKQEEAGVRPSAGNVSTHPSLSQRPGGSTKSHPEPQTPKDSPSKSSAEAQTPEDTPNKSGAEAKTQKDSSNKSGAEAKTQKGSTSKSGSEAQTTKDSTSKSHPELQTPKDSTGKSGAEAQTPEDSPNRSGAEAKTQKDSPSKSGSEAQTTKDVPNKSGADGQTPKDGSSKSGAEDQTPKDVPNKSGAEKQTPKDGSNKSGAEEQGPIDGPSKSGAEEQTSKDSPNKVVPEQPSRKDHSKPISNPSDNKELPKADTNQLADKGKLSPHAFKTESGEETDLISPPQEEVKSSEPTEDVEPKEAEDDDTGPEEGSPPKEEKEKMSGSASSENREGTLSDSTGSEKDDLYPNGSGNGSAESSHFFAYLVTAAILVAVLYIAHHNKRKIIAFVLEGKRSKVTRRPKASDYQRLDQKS
UniProt Q9BTW9: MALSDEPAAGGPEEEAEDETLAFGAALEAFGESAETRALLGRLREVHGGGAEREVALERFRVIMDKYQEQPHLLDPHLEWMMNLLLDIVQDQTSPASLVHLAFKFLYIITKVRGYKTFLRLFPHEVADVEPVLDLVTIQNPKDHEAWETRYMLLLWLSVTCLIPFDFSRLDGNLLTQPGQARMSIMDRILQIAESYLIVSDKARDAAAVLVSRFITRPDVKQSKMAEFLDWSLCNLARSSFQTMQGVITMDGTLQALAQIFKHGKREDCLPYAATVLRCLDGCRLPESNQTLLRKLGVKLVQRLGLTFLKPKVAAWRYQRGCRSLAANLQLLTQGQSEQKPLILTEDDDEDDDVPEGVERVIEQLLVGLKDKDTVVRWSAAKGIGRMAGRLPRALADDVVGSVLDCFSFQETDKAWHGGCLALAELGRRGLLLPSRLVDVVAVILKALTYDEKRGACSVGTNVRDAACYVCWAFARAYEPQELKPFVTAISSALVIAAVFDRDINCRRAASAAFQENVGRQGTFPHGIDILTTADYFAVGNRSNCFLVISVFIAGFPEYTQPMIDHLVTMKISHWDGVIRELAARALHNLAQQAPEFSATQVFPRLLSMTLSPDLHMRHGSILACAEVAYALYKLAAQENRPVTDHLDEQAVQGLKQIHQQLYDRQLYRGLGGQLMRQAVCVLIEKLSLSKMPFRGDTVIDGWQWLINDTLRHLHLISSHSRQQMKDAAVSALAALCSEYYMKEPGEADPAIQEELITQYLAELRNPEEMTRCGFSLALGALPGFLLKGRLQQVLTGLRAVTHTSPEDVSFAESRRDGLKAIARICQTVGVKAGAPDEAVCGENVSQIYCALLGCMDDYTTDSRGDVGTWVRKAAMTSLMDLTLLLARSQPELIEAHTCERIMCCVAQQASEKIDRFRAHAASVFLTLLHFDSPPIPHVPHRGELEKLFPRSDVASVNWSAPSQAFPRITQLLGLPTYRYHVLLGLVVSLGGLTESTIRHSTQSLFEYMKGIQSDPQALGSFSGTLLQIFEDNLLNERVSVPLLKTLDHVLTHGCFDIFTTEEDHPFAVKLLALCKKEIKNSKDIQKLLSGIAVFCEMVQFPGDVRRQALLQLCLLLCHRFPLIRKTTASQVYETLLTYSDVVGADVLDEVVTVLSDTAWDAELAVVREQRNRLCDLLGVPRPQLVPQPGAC
UniProt P01137, whole entry, looked up: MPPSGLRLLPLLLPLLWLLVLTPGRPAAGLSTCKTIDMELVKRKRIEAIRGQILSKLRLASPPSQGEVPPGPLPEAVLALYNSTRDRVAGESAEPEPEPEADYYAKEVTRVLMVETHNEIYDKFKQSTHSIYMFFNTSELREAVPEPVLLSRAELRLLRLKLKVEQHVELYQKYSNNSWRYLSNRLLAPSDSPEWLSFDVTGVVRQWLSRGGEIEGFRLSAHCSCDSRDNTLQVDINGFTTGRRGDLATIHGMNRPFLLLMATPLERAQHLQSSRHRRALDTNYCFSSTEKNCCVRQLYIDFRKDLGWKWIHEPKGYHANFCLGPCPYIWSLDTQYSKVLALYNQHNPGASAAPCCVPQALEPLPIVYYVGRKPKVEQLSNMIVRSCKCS
UniProt Q9BTF0: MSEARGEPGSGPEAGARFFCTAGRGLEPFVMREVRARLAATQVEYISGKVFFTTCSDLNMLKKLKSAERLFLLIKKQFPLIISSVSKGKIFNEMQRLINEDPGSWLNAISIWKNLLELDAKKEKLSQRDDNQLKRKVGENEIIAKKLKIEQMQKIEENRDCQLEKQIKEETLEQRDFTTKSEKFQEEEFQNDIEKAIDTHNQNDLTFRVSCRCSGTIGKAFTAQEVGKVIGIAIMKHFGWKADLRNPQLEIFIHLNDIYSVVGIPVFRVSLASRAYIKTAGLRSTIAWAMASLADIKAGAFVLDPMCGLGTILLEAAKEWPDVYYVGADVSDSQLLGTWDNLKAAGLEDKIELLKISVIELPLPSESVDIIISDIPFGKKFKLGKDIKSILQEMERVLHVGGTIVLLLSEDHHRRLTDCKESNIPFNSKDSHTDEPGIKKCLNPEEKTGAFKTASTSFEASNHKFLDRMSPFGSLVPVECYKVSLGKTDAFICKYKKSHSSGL
UniProt Q66K14, whole entry, looked up: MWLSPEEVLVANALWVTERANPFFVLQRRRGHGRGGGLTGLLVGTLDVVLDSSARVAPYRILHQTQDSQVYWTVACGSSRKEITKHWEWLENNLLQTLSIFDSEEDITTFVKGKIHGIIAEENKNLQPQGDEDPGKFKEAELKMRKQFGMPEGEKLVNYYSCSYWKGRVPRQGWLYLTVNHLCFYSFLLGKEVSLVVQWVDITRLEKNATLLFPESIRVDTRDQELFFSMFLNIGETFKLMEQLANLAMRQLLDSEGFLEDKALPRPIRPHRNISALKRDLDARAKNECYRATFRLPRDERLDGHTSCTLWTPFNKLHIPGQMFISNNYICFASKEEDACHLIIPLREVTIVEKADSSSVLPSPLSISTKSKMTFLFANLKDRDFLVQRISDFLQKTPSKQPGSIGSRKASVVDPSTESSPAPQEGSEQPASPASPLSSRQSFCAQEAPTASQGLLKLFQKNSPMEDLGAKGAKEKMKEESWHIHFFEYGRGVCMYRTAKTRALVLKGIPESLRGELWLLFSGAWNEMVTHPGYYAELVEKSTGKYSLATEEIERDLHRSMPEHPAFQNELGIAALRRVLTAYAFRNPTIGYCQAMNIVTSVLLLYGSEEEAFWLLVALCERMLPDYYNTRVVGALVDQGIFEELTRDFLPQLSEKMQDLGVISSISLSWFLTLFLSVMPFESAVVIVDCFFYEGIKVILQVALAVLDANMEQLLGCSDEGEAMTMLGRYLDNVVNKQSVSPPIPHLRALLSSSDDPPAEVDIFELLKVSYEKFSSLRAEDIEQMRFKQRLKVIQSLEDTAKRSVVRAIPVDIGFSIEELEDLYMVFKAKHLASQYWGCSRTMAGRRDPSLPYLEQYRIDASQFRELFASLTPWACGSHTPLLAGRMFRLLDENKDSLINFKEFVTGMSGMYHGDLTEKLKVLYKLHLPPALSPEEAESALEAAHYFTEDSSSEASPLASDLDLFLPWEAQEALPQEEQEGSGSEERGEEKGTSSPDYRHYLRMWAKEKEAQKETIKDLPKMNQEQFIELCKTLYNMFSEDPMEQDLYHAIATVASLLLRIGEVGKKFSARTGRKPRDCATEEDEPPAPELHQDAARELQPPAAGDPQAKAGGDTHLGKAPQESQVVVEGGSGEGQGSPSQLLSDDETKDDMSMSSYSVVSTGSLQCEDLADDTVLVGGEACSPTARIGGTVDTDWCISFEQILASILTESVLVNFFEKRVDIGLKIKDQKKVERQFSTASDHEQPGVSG

Assays:
Assay in all cases: log2 fold change, soluble protein after heating vs DMSO (PISA); higher = thermal stabilisation; K562 cells, 10 uM, 30 min; active = over 0.2 and 3.5 SD of the protein, either way, in both replicates (recomputed)
bafetinib = compound: Cc1ccc(NC(=O)c2ccc(CN3CC[C@H](N(C)C)C3)c(C(F)(F)F)c2)cc1Nc1nccc(-c2cncnc2)n1 [bafetinib]
Procedure, shortened: (§1)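 Values are thermal stability changes relative to control samples and are taken from duplicates. They are stated as log2 fold changes. Before quantification by TMTpro 16plex LC-MS/MS with equalised channel sums, K562 cells at 2×10^6 cells/mL were treated with 10 μM compound for 30 min, heated in aliquots for 3 min across 48°C-58°C, pooled, extracted in PBS with 0.5% NP-40 at 4°C, and centrifuged at 21,000xg for 90 min to give the soluble supernatant.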

[1] = compound: Cc1cccc(CC(=O)N2CCc3c2ccc(-c2cn(C)c4ncnc(N)c24)c3F)n1
Procedure, shortened: as §1

nilotinib = compound: Cc1cn(-c2cc(NC(=O)c3ccc(C)c(Nc4nccc(-c5cccnc5)n4)c3)cc(C(F)(F)F)c2)cn1 [nilotinib]
Procedure, shortened: as §1

[2] = compound: Cc1nc(Nc2n[nH]c3c2CN(C(=O)N[C@H](CN(C)C)c2ccccc2)C3(C)C)c2sccc2n1
Procedure, shortened: as §1

dasatinib = compound: Cc1nc(Nc2ncc(C(=O)Nc3c(C)cccc3Cl)s2)cc(N2CCN(CCO)CC2)n1 [dasatinib]
Procedure, shortened: as §1

[3] = compound: Cc1ncc(-c2ccnc(Nc3ccc(S(C)(=O)=O)cc3)n2)n1C(C)C
Procedure, shortened: as §1

[4] = compound: Cn1cc(-c2ccc3c(c2)CCN3C(=O)Cc2cccc(C(F)(F)F)c2)c2c(N)ncnc21
Procedure, shortened: as §1

[5] = compound: Cn1cc(-c2ccc3nnc(C(F)(F)c4ccc5ncccc5c4)n3n2)cn1
Procedure, shortened: as §1

tipifarnib = compound: Cn1cncc1[C@@](N)(c1ccc(Cl)cc1)c1ccc2c(c1)c(-c1cccc(Cl)c1)cc(=O)n2C [tipifarnib]
Procedure, shortened: as §1

mubritinib = compound: FC(F)(F)c1ccc(/C=C/c2nc(COc3ccc(CCCCn4ccnn4)cc3)co2)cc1 [mubritinib]
Procedure, shortened: as §1

Row | Target | log2 fold change (bafetinib) | log2 fold change [1] | log2 fold change (nilotinib) | log2 fold change [2] | log2 fold change (dasatinib) | log2 fold change [3] | log2 fold change [4] | log2 fold change [5] | log2 fold change (tipifarnib) | log2 fold change (mubritinib)
1 | TERF2 (UniProt Q15554) | inactive: 0.031 | inactive: -0.009 | inactive: -0.024 | inactive: -0.12 | inactive: -0.157 | inactive: -0.045 | inactive: -0.071 | inactive: -0.151 | inactive: 0.006 | inactive: -0.172
2 | TIMMDC1 (UniProt Q9NPL8) | inactive: -0.024 | inactive: -0.071 | inactive: 0.059 | inactive: 0.012 | inactive: 0.103 | inactive: -0.007 | inactive: -0.001 | inactive: 0.053 | inactive: 0.043 | inactive: 0.011
3 | TBC1D4 (UniProt O60343) | inactive: -0.103 | inactive: -0.005 | inactive: -0.05 | inactive: -0.007 | inactive: -0.081 | inactive: 0.006 | inactive: -0.002 | inactive: -0.018 | inactive: -0.061 | inactive: -0.004
4 | TIMM10B (UniProt Q9Y5J6) | inactive: 0.4 | inactive: -0.138 | inactive: 0.006 | inactive: -0.04 | inactive: 0.138 | inactive: -0.052 | inactive: 0.01 | inactive: 0.224 | inactive: -0.001 | inactive: 0.065
5 | TBL3 (UniProt Q12788) | inactive: 0.024 | inactive: -0.017 | inactive: 0.004 | inactive: -0.009 | inactive: 0.022 | inactive: 0.074 | inactive: -0.038 | inactive: -0.055 | inactive: 0.101 | inactive: -0.065
6 | TIMM22 (UniProt Q9Y584) | inactive: -0.055 | inactive: 0.08 | inactive: -0.018 | inactive: 0.042 | inactive: -0.037 | inactive: -0.022 | inactive: 0.041 | inactive: -0.056 | inactive: -0.035 | inactive: 0.001
7 | THOC3 (UniProt Q96J01) | inactive: 0.011 | inactive: 0.031 | inactive: 0.01 | inactive: -0.02 | inactive: -0.008 | inactive: -0.025 | inactive: 0.044 | inactive: 0.024 | inactive: -0.057 | inactive: 0.032
8 | TET1 (UniProt Q8NFU7) | inactive: 0 | inactive: 0.084 | inactive: -0.129 | inactive: 0.05 | inactive: 0.163 | inactive: -0.132 | inactive: 0.072 | inactive: 0.083 | inactive: -0.088 | inactive: 0.131
9 | TIMM44 (UniProt O43615) | active: -0.355 | inactive: 0.045 | inactive: -0.062 | inactive: -0.066 | inactive: -0.192 | inactive: 0.006 | inactive: 0.026 | inactive: -0.002 | inactive: -0.054 | inactive: 0.001
10 | TGOLN2 isoform 7 (UniProt O43493) | inactive: -0.021 | inactive: -0.075 | inactive: 0.07 | inactive: 0 | inactive: 0.081 | inactive: 0.017 | inactive: 0.012 | inactive: 0.025 | inactive: 0.014 | inactive: -0.007
11 | TERF2IP (UniProt Q9NYB0) | inactive: -0.051 | inactive: -0.008 | inactive: -0.006 | inactive: -0.163 | inactive: -0.028 | inactive: -0.128 | inactive: -0.078 | inactive: -0.033 | inactive: 0.074 | inactive: -0.014
12 | TIMM8B (UniProt Q9Y5J9) | inactive: -0.119 | inactive: -0.089 | inactive: -0.005 | inactive: -0.004 | inactive: 0.163 | inactive: -0.041 | inactive: 0.181 | inactive: 0.142 | inactive: 0.018 | inactive: 0.019
13 | TBRG4 (UniProt Q969Z0) | inactive: -0.137 | inactive: -0.035 | inactive: -0.027 | inactive: -0.291 | inactive: -0.513 | inactive: 0.006 | inactive: 0.095 | inactive: 0.003 | inactive: -0.317 | inactive: -0.277
14 | TIMM10 (UniProt P62072) | inactive: -0.081 | inactive: 0.027 | inactive: 0.014 | inactive: 0.005 | inactive: 0.114 | inactive: -0.027 | inactive: -0.05 | inactive: 0.153 | inactive: 0.048 | inactive: -0.024
15 | TBCD (UniProt Q9BTW9) | inactive: -0.064 | inactive: 0.029 | inactive: -0.101 | inactive: -0.078 | inactive: -0.086 | inactive: -0.025 | inactive: 0.007 | inactive: 0.025 | inactive: -0.038 | inactive: -0.039
16 | TBC1D24 (UniProt Q9ULP9) | inactive: -0.007 | inactive: 0.049 | inactive: -0.069 | active: -0.318 | inactive: -0.15 | inactive: -0.219 | inactive: 0.098 | inactive: -0.045 | inactive: -0.106 | inactive: 0.097
17 | TGFB1 (UniProt P01137) | inactive: -0.031 | inactive: -0.035 | inactive: 0.002 | inactive: 0.028 | inactive: 0.029 | inactive: -0.019 | inactive: 0.011 | inactive: -0.022 | inactive: 0.011 | inactive: 0.016
18 | TIPRL (UniProt O75663) | inactive: -0.052 | inactive: 0.066 | inactive: -0.022 | inactive: -0.025 | inactive: -0.103 | inactive: -0.035 | inactive: 0.032 | inactive: 0.048 | inactive: -0.16 | inactive: 0.098
19 | TBCE (UniProt Q15813) | inactive: 0.089 | inactive: 0.07 | inactive: -0.112 | inactive: -0.182 | inactive: -0.176 | inactive: 0.016 | inactive: 0.011 | inactive: -0.048 | inactive: -0.02 | inactive: -0.019
20 | TBL1XR1 (UniProt Q9BZK7) | inactive: 0.048 | inactive: 0.063 | inactive: -0.009 | inactive: -0.006 | inactive: 0.013 | inactive: -0.011 | inactive: 0.007 | inactive: 0.016 | inactive: -0.033 | inactive: 0.006
21 | TICAM2 isoform 2 (UniProt Q86XR7) | inactive: -0.044 | inactive: 0.009 | inactive: -0.009 | inactive: 0.039 | inactive: 0.086 | inactive: 0.002 | inactive: 0.036 | inactive: -0.085 | inactive: -0.035 | inactive: 0.002
22 | TIMM17A (UniProt Q99595) | inactive: -0.005 | inactive: -0.053 | inactive: 0.019 | inactive: 0.042 | inactive: 0.012 | inactive: -0.07 | inactive: 0.012 | inactive: 0.008 | inactive: 0.036 | inactive: 0.061
23 | TFB2M (UniProt Q9H5Q4) | inactive: -0.046 | inactive: 0.008 | inactive: -0.043 | inactive: -0.024 | inactive: -0.099 | inactive: 0.009 | inactive: 0.012 | inactive: -0.004 | inactive: -0.132 | inactive: -0.039
24 | TGFBR1 isoform 2 (UniProt P36897) | inactive: -0.009 | inactive: -0.052 | inactive: -0.049 | inactive: -0.018 | – | inactive: 0.007 | inactive: -0.046 | inactive: 0.001 | inactive: 0.017 | inactive: -0.113
25 | THUMPD2 (UniProt Q9BTF0) | inactive: -0.015 | inactive: -0.111 | inactive: 0.006 | inactive: 0.03 | inactive: 0.028 | inactive: 0.002 | inactive: -0.021 | inactive: -0.001 | inactive: -0.004 | inactive: -0.031
26 | TENT5C (UniProt Q5VWP2) | inactive: -0.055 | inactive: 0.009 | inactive: 0.002 | inactive: 0.02 | inactive: -0.122 | inactive: 0.005 | inactive: -0.286 | inactive: 0.028 | inactive: -0.02 | inactive: 0.014
27 | TBC1D9B (UniProt Q66K14) | inactive: -0.262 | inactive: -0.042 | inactive: -0.055 | inactive: 0.053 | inactive: -0.156 | inactive: -0.034 | inactive: 0.07 | inactive: -0.06 | inactive: 0.019 | inactive: 0.203

Whole records from above. Order of values: log2 fold change (bafetinib) | log2 fold change [1] | log2 fold change (nilotinib) | log2 fold change [2] | log2 fold change (dasatinib) | log2 fold change [3] | log2 fold change [4] | log2 fold change [5] | log2 fold change (tipifarnib) | log2 fold change (mubritinib)
TGOLN2 isoform 7 (UniProt O43493) is listed as inactive: -0.021 | inactive: -0.075 | inactive: 0.07 | inactive: 0 | inactive: 0.081 | inactive: 0.017 | inactive: 0.012 | inactive: 0.025 | inactive: 0.014 | inactive: -0.007
THOC3 (UniProt Q96J01) is listed as inactive: 0.011 | inactive: 0.031 | inactive: 0.01 | inactive: -0.02 | inactive: -0.008 | inactive: -0.025 | inactive: 0.044 | inactive: 0.024 | inactive: -0.057 | inactive: 0.032
